Reference: article PMC12561399
These are yes or no findings as the source states them, for the method shown. In cells and extracts the contact can be indirect. Some entries that bind do so weakly or less than the wild type.

Legend:
[1] = biological target: T1, periostin (POSTN) (mouse (endogenous in mouse TDSCs and mouse tendon tissue)) (UniProt Q62009); assay: co-IP; lysate of osteogenic induced TDSCs; antibody overnight at 4 °C, Protein A/G magnetic beads, SDS-PAGE and blot; N = 3
T1 sequence: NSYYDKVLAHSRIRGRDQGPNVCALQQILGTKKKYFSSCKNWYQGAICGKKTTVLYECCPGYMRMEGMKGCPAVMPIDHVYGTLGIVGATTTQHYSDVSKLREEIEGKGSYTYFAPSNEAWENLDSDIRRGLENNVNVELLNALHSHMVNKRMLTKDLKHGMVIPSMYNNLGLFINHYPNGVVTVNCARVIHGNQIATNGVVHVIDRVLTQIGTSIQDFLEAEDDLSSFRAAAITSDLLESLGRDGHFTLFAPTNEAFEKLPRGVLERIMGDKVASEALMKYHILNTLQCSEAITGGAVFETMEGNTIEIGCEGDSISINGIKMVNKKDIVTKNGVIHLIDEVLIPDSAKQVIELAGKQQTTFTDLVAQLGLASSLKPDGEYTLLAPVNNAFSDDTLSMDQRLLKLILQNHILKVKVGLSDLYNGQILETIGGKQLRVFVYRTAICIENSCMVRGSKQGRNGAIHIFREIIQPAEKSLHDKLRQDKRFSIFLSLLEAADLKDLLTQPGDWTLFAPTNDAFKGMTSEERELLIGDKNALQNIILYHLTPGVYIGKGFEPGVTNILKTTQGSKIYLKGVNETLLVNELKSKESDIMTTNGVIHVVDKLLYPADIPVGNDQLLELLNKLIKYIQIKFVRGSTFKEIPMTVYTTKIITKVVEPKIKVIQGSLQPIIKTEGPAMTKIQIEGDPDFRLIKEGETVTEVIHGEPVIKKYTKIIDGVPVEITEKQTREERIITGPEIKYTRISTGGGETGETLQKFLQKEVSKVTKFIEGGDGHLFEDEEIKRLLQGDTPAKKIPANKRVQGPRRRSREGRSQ

[2] = biological target: T1, periostin (POSTN) (mouse (endogenous in mouse TDSCs and mouse tendon tissue)); assay: co-IP; heterotopic ossified tissue (in vivo); antibody overnight at 4 °C, Protein A/G magnetic beads, SDS-PAGE and blot; N = 3

binding [1]: binds
binding [2]: binds
B1: Protein Tyrosine Kinase 7 (PTK7) (receptor, UniProt Q8BKG3 23-1062)
chain: AIVFIKEPSSQDALQGRRALLRCEVEAPDPVHVYWLLNGVPVQDTERRFAQGSSLSFAAVDRLQDSGAFQCVARDNVTGEEVRSTNASFNIKWIEAGPVVLKHPASEAEIQPQTQVTLRCHIDGHPRPTYQWFRDGTPLSDDQSTHTVSSRERNLTLRPASPEHSGLYSCCAHNAFGQACSSQNFTLSVADESFARVVLAPQDVVVARNEEAMFHCQFSAQPPPSLQWVFEDETPITNRSRPPHLRRAVVFANGSLLLTQVRPRNAGVYRCIGQGQRGPPIVLEATLHLAEIEDMLPFEPRVFIAGDEERVTCPAPQGLPTPSVWWEHAGVPLPAHGRVHQKGLELVFVTIAESDTGVYTCHASNLAGQRRQDVNITVATVPTWLRKPQDSQLEEGKPGYLHCLTQATPKPTVIWYRNQMLISEDSRFEVSKNGTLRINSVEVYDGTLYRCVSSTPAGSIEAQARVQVLEKLKFTPPPQPQQCMEFDKEATVPCSATGREKPTVKWVRADGSSLPEWVTDNAGTLHFARVTRDDAGNYTCIASNEPQGQIRAHVQLTVAVFITFKVEPERTTVYQGHTALLRCEAQGDPKPLIQWKGKDRILDPTKLGPRMHIFQNGSLVIHDVAPEDSGSYTCIAGNSCNIRHTEAPLLVVDKPVMEDSEGPGSPPPYKMIQTIGLSVGAAVAYIIAVLGLMFYCKKRCKAKRLQKQPEGEEPEMECLNGGPLQNGQPSAEIQEEVALTSLGSGPPATNKRHSAGDRMHFPRASLQPITTLGKSEFGEVFLAKAQGVEEGATETLVLVKSLQSRDEQQQLDFRREVEMFGKLNHANVVRLLGLCREAEPHYMVLEYVDLGDLKQFLRISKNKDEKLKSQPLSTKQKVALCSQVALGMEHLSNNRFVHKDLAARNCLISAQRQVKVSALGLSKDVYNSEYYHFRQAWVPLRWMSPEAVLEGDFSTKSDVWAFGVLMWEVFTHGEMPHGGQADDEVLADLQAGKARLPQPEGCPSKLYRLMQRCWAPNPKDRPSFSEIASTLGDSPADSKQ
